No constants are given. Whether binding was seen depends on the method and setting. For part of these data: In cells and extracts the contact can be indirect. Some results given as binding are weak or reduced against the parent protein; the word gives no strength. For part of these data: Tags and fused reporters may be left off the sequences shown.
Experiments:
[1] = target: T1, Elp1-GFP (wild-type, genomic copy tagged) (S. cerevisiae) (UniProt Q06706); assay: co-IP; GFP-tagged Elp1 (genomic locus) precipitated with GFP-trap from yeast extracts; Western blot with anti-GFP and anti-HA; densitometry of Kti12-HA normalised to Elp1-GFP, wild type set to 1.0
T1 sequence: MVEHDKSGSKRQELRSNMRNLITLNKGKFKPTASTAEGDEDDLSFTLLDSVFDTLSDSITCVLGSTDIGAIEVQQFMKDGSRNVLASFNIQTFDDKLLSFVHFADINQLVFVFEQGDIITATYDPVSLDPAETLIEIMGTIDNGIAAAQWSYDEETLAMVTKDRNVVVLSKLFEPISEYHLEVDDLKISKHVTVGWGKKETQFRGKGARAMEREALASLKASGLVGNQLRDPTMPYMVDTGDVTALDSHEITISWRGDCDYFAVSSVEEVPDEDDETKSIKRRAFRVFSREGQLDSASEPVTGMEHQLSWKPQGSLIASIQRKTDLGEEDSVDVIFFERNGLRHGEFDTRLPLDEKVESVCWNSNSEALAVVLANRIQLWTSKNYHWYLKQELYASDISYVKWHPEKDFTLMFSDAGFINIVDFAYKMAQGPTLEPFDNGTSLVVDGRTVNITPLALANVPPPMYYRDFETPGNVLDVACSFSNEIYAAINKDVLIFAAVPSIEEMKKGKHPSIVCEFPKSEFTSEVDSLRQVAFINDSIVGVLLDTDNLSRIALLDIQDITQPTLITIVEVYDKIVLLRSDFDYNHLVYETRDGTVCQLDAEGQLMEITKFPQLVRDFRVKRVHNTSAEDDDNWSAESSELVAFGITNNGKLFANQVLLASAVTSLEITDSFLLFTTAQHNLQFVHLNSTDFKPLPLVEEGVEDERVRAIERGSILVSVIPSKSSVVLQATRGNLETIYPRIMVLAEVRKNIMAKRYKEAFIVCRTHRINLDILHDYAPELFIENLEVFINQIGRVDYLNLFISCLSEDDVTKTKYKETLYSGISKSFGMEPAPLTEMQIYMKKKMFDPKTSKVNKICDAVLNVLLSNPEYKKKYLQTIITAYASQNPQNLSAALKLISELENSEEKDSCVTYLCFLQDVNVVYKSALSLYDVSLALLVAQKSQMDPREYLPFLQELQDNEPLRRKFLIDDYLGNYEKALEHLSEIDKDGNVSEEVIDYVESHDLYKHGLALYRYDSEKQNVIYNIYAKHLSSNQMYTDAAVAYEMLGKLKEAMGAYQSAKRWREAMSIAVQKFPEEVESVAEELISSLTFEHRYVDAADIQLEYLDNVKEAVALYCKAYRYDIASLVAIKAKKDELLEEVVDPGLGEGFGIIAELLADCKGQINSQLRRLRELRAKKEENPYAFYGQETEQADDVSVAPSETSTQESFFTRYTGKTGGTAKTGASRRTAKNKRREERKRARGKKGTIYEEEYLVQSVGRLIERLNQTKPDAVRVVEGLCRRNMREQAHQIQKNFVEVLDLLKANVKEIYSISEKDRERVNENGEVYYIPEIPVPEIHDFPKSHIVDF

Elp3-TAP (S. cerevisiae) = target: T2, Elp3-TAP (S. cerevisiae) (UniProt Q02908); assay: tandem affinity purification, kinase activity of the purified complex; Elongator purified by TAP-tagged Elp3 and incubated with [γ-32P]ATP without added kinase; phosphorylated Elp1 seen by autoradiography
T2 sequence: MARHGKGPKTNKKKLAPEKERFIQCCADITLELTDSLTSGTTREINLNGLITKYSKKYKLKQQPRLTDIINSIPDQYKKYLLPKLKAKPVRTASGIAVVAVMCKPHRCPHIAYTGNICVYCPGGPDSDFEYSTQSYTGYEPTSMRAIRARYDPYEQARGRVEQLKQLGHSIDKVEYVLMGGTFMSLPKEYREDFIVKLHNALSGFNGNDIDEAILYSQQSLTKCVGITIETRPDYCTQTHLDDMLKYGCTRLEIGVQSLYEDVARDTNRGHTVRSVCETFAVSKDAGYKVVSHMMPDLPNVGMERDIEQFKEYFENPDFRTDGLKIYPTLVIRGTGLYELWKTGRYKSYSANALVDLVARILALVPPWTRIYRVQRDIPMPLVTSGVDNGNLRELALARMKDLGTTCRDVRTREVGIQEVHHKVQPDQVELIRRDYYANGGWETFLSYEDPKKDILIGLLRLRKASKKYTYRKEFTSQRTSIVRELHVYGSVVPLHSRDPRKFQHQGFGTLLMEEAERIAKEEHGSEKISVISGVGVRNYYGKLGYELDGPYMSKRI

[2] = target: T3, Elp1-HA (S7 Fig) (S. cerevisiae) (UniProt Q06706); assay: co-IP; Elp1-HA immunoprecipitated from extracts of HRR25 and hrr25-2 strains; Western blot with anti-HA, anti-myc and anti-Hrr25; untagged ELP1 as control
T3 sequence: T1 sequence

B1: Kti12-HA6 (natural protein, S. cerevisiae, UniProt P34253 1-313, looked up)
chain: MPLVLFTGYPCSGKTTLAKHLVQLLQSKIDATPSLSKYSITYHSDESLGIKHSDYITSQDERKLRSEIISAVKRDLSKNKIVIVDSLNYIKGFRYQLHCEVKNLSTTFCVIQTLCPPETIFEWNKTSNPNPWEPELLNQLIQRYEEPNSSNRWDSPLFAILTPQDNITDYIDDICKVVFQTSKSAKNSGHNDPLSKGLQKPNSATVLKPASQSNFIQVLDIETSKIIKTIMNHIKSLTSIGGVSNGTRVIVSEGITDINDDGCFFVDLPIGNVVTLAQLQRLKRQFINFNKLRDIDQDRIGPLFADYLNKNLN
notes: Kti12, accessory protein of Elongator, S. cerevisiae; also called HA-tagged Kti12; source: S. cerevisiae KTI12-HA6 strains, in cell extract
With B1 the binding [1] was “binds”.

B2: Hrr25 protein kinase (casein kinase I), endogenous (enzyme, UniProt P29295 1-494)
chain: MDLRVGRKFRIGRKIGSGSFGDIYHGTNLISGEEVAIKLESIRSRHPQLDYESRVYRYLSGGVGIPFIRWFGREGEYNAMVIDLLGPSLEDLFNYCHRRFSFKTVIMLALQMFCRIQYIHGRSFIHRDIKPDNFLMGVGRRGSTVHVIDFGLSKKYRDFNTHRHIPYRENKSLTGTARYASVNTHLGIEQSRRDDLESLGYVLIYFCKGSLPWQGLKATTKKQKYDRIMEKKLNVSVETLCSGLPLEFQEYMAYCKNLKFDEKPDYLFLARLFKDLSIKLEYHNDHLFDWTMLRYTKAMVEKQRDLLIEKGDLNANSNAASASNSTDNKSETFNKIKLLAMKKFPTHFHYYKNEDKHNPSPEEIKQQTILNNNAASSLPEELLNALDKGMENLRQQQPQQQVQSSQPQPQPQQLQQQPNGQRPNYYPEPLLQQQQRDSQEQQQQVPMATTRATQYPPQINSNNFNTNQASVPPQMRSNPQQPPQDKPAGQSIWL
In the case of B2, the binding (Elp3-TAP (S. cerevisiae)) is reported as “binds” and the binding [2] is reported as “binds”.

Source: paper PMC4287497, “Phosphorylation of Elp1 by Hrr25 Is Required for Elongator-Dependent tRNA Modification in Yeast” (PLoS Genetics, 2015)
